Structures can show the parent of a compound that is named as a salt.
Test system: iPSC-CMs, iPSC-ECs and HUVECs phenotypes
Assay: ToxPi 2.0 integration of POD values and physicochemical descriptors
Parameters: species or system human
Conditions: for ToxPi_Score_Bioactivity: Biological Activity ToxPi, POD values of iPSC-CM, iPSC-EC and HUVEC phenotypes integrated; for ToxPi_Score_ChemBiol: Chemical-Biological Integration ToxPi, in vitro data plus physicochemical descriptors
Source text: Phenotypic responses were quantitatively assessed using concentration–response modeling as detailed elsewhere ([Sirenko et al. 2017]). Briefly, phenotypic readouts were normalized to vehicle controls and fit to a four-parameter logistic model in R studio software (version 3.1.1; R Development Core Team). Following EPA guidance on dose–response modeling, a cutoff of one standard deviation across means of vehicle control (i.e., 0.5% vol/vol DMSO in cell culture media) wells was applied to determine the point-of-departure (POD) values ([U.S. EPA 2012]). In the absence of a concentration–response, the highest tested concentration (i.e., 100μM ) was assigned as “no observable adverse effect level.” The concentration–response assessment R script, as well as templates for vehicle and concentration–response data, are available as a supplement to Sirenko et al. ([2017]). The ability of physicochemical properties to predict differences in PODs were evaluated by multiregression and mixed-effects modeling using R.
POD values were then integrated using ToxPi 2.0 ([Marvel et al. 2018]) software. In ToxPi, each slice is representative of cell type– and time-point–specific phenotypes. The area of each slice is proportional to the relative value (e.g., bioactivity or physicochemical descriptor value) of the chemical within the data set. ToxPi scores were used to rank PCBs and their metabolites according to their overall bioactivity and to determine variability in total observable biological responses and chemical characteristics for each major metabolite class and chlorination status (mono-, hexa-chlorinated). Additional visualizations such as dumbbell and principal components analysis plots were generated in R Studio (version 1.1.456; R version 3.5.1; R Development Core Team) using the ggplot2 package.

[1] = iPSC-EC tube formation, 18 hr, scaled from POD
[2] = iPSC-EC, 24 hr, scaled from POD
[3] = HUVECs tube formation, 18 hr, scaled score from POD
[4] = HUVECs, 24 hr, scaled score from POD
[5] = iPSC-EC, 18 h, scaled POD score
[6] = iPSC-EC, 24 h, scaled POD score

## COc1ccc(-c2cccc(Cl)c2)cc1Cl [4-OMe PCB11]
HUVECs, 18 hr, scaled from POD
  huvec.mtl.18hr ToxPi: 0.53
  huvec.tlps.18hr ToxPi: 0.26
  huvec.tta.18hr ToxPi: 0.00
  huvec.ttl.18hr ToxPi: 0.66
HUVECs, 24 hr, scaled from POD
  huvec.cyto.24hr ToxPi: 0.27
  huvec.mito.24hr ToxPi: 0.33
  huvec.mitoint.24hr ToxPi: 0.36
  huvec.nma.24hr ToxPi: 0.35
HUVECs, scaled from POD
  huvec.tc.24hrs ToxPi: 0.27
iPSC-CM
  cm.amp.avg.24hrs ToxPi: 0.15
  cm.amp.avg.90min ToxPi: 0.65
  cm.amp.cv.24hrs ToxPi: 0.06
  cm.amp.cv.90min ToxPi: 0.25
  cm.bpm.24hrs ToxPi: 0.44
  cm.bpm.90min ToxPi: 0.48
  cm.cam.24hrs ToxPi: 0.13
  cm.cam.90min ToxPi: 0.45
  cm.decay.rise.24hrs ToxPi: 0.25
  cm.decay.rise.90min ToxPi: 0.53
  cm.mii.24hrs ToxPi: 0.59
  cm.mii.90min ToxPi: 0.18
  cm.mito.24hrs ToxPi: 0.25
  cm.mito.90min ToxPi: 0.50
  cm.spacing.cv.24hrs ToxPi: 0.18
  cm.spacing.cv.90min ToxPi: 0.14
  cm.tc.24hrs ToxPi: 0.25
  cm.tc.90min ToxPi: 0.51
[1]
  endo.mtl.18hr ToxPi: 0.00
  endo.tlps.18hr ToxPi: 0.20
  endo.tta.18hr ToxPi: 1.00
  endo.ttl.18hr ToxPi: 1.00
[2]
  endo.cyto.24hr ToxPi: 0.00
  endo.mito.24hr ToxPi: 0.00
  endo.mitoint.24hr ToxPi: 0.00
  endo.nma.24hr ToxPi: 0.00
  endo.tc.24hrs ToxPi: 0.00

## COc1cc(Cl)c(-c2cc(Cl)ccc2Cl)cc1Cl [4-OMe PCB52]
90min
  cm.amp.avg.90min ToxPi: 0.72
  cm.amp.cv.90min ToxPi: 0.19
  cm.bpm.90min ToxPi: 0.65
  cm.cam.90min ToxPi: 0.53
  cm.decay.rise.90min ToxPi: 0.55
  cm.mii.90min ToxPi: 0.21
  cm.mito.90min ToxPi: 0.69
  cm.spacing.cv.90min ToxPi: 0.09
  cm.tc.90min ToxPi: 0.46
24hrs
  cm.amp.avg.24hrs ToxPi: 0.00
  cm.amp.cv.24hrs ToxPi: 0.07
  cm.bpm.24hrs ToxPi: 0.21
  cm.cam.24hrs ToxPi: 0.15
  cm.decay.rise.24hrs ToxPi: 0.26
  cm.mii.24hrs ToxPi: 0.76
  cm.mito.24hrs ToxPi: 0.22
  cm.spacing.cv.24hrs ToxPi: 0.25
  cm.tc.24hrs ToxPi: 0.24
[3]
  huvec.mtl.18hr ToxPi: 0.39
  huvec.tlps.18hr ToxPi: 0.37
  huvec.tta.18hr ToxPi: 0.00
  huvec.ttl.18hr ToxPi: 0.00
[4]
  huvec.cyto.24hr ToxPi: 0.50
  huvec.mito.24hr ToxPi: 0.62
  huvec.mitoint.24hr ToxPi: 0.72
  huvec.nma.24hr ToxPi: 0.48
HUVECs, scaled score from POD
  huvec.tc.24hrs ToxPi: 0.50
[5]
  endo.mtl.18hr ToxPi: 0.07
  endo.tlps.18hr ToxPi: 0.09
  endo.tta.18hr ToxPi: 0.06
  endo.ttl.18hr ToxPi: 0.0557
[6]
  endo.cyto.24hr ToxPi: 0.15
  endo.mito.24hr ToxPi: 0.15
  endo.mitoint.24hr ToxPi: 0.00
  endo.nma.24hr ToxPi: 0.10
  endo.tc.24hrs ToxPi: 0.16

## COc1ccc(-c2cccc(Cl)c2)cc1Cl [4-OMe-PCB 11, 4-methoxy-3,3′-dichlorobiphenyl]
  ToxPi_Score_Bioactivity: 0.416
  ToxPi_Score_ChemBiol: 0.4253

## COc1cc(Cl)c(-c2cc(Cl)ccc2Cl)cc1Cl [4-OMe-PCB 52, 4-methoxy-2,2′,5,5′-tetrachlorobiphenyl]
  ToxPi_Score_Bioactivity: 0.3568
  ToxPi_Score_ChemBiol: 0.526

## O=S(=O)(O)Oc1ccc(-c2cccc(Cl)c2)cc1Cl [4-PCB 11 sulfate]
  ToxPi_Score_Bioactivity: 0.2554
  ToxPi_Score_ChemBiol: 0.4098

## O=S(=O)(O)Oc1cc(Cl)c(-c2cc(Cl)ccc2Cl)cc1Cl [4-PCB 52 sulfate]
  ToxPi_Score_Bioactivity: 0.4222
  ToxPi_Score_ChemBiol: 0.6505

Reference: PMC7377239, “Cardiovascular Effects of Polychlorinated Biphenyls and Their Major Metabolites” (Environmental Health Perspectives, 2020)
